Values quoted from earlier work as cited in patent publication US20170165237A1 (DRUGGABILITY TECHNOLOGIES IP HOLDCO LIMITED, priority 2014, published 2017).

Details: cited from earlier work

For `CO[C@H]1C[C@@H]2CC[C@@H](C)[C@@](O)(O2)C(=O)C(=O)N2CCCC[C@H]2C(=O)O[C@H]([C@H](C)C[C@@H]2CC[C@@H](O)[C@H](OC)C2)CC(=O)[C@H](C)/C=C(\C)[C@@H](O)[C@@H](OC)C(=O)[C@H](C)C[C@H](C)/C=C/C=C/C=C/1C` [Sirolimus, (3 S,6R,7E,9R,10R, 12R, 14S, 15E, 17E, 19E,21 S,23 S,26R,27R,34aS)9,10,12,13,14,21,22,23,24, 25,26,27,32,33,34, 34a-hexadecahydro-9,27-dihydroxy-3-[(1R)-2[(1 S,3R,4R)-4-hydroxy-3-methoxycyclohexyl]-1-methylethyl]-10,21-dimethoxy6,8,12,14,20,26-hexamethyl-23,27-epoxy-3H-pyrido[2,1-c][1,4]oxaazacyclohentriacontine1,5,11,28,29 (4H,6H,31H)-pentone], the “solubility in organic solvents” value (benzyl alcohol, chloroform, acetone, and acetonitrile) is listed as “freely soluble” and the solubility in water (water) is listed as “insoluble”.
